Measurements taken from publication PMC9465852, “Comparative analyses of vertebrate CPEB proteins define two subfamilies with coordinated yet distinct functions in post-transcriptional gene regulation”.
Where two headings read alike, the source gives them in different places. Results are given in words; binding and its absence hold for the method and conditions named. In cells and extracts the contact can be indirect. A result given as binding can be weak or reduced; the word gives no strength. For some of these results: Sequences can lack the tags named with a protein. Values belong to the molecule of their own block, whether it stands above or below them.

Sequences of proteins named here, by UniProt entry; tags and fusion partners are left off. A change or cut given only in a name is not applied to a line headed by its entry.
UniProt Q91572: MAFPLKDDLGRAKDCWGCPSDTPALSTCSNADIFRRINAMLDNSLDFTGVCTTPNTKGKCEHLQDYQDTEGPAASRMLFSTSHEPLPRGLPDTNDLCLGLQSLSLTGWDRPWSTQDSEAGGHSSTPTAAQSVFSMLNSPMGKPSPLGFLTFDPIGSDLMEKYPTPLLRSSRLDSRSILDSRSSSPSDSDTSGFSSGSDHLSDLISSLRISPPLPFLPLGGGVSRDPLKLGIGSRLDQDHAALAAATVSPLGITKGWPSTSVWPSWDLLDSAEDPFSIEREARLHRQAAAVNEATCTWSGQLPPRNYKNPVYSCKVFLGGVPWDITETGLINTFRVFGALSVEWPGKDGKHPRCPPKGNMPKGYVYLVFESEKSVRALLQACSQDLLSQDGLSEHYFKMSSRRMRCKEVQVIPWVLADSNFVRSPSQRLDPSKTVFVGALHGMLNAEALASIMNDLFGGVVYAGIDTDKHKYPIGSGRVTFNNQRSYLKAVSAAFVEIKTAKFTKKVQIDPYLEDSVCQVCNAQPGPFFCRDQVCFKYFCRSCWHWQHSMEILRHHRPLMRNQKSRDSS
UniProt Q9PTG8: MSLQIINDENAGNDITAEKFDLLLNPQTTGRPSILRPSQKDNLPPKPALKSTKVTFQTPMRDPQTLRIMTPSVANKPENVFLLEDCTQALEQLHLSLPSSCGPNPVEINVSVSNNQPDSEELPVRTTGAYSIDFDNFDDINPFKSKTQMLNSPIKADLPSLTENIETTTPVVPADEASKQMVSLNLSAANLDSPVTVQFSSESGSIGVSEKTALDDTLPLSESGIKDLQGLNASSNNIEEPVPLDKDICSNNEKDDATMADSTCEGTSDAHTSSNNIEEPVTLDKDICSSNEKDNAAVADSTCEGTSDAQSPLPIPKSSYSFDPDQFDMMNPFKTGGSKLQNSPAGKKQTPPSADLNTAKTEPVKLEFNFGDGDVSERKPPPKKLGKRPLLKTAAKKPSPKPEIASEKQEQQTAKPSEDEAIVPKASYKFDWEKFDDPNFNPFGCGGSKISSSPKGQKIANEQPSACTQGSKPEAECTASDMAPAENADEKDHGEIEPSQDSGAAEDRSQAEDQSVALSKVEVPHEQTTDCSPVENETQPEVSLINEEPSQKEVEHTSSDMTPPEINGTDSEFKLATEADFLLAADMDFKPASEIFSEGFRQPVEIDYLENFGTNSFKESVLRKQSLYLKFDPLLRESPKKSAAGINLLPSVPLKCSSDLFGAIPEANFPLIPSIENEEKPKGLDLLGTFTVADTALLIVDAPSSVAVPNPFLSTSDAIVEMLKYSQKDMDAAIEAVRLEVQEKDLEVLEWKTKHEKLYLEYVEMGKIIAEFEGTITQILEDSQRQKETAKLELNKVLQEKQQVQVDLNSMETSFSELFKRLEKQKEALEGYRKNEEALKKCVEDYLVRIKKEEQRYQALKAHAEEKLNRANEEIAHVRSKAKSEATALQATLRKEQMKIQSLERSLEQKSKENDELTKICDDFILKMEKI

Assays:
[1] = target: HA-tagged CPEB2 (Xenopus laevis); experiment: co-IP; HA-tagged CPEB as bait from injected RNA in stage VI oocytes; lysis in 20 mM Tris-HCl pH 8, 100 mM NaCl, 0.4% NP40, 1 mM EDTA, 1 mM MgCl2; anti-HA magnetic beads; endogenous preys by Western blot
[2] = target: HA-tagged CPEB1 (Xenopus laevis) (UniProt Q91572); experiment: as above
[3] = target: T1, HA-GLD2 (UniProt Q641A1); experiment: co-IP; HA-tagged partner as bait from injected RNA in stage VI oocytes; anti-HA magnetic beads; endogenous CPEB1 by Western blot (Fig. 3C)
T1 sequence: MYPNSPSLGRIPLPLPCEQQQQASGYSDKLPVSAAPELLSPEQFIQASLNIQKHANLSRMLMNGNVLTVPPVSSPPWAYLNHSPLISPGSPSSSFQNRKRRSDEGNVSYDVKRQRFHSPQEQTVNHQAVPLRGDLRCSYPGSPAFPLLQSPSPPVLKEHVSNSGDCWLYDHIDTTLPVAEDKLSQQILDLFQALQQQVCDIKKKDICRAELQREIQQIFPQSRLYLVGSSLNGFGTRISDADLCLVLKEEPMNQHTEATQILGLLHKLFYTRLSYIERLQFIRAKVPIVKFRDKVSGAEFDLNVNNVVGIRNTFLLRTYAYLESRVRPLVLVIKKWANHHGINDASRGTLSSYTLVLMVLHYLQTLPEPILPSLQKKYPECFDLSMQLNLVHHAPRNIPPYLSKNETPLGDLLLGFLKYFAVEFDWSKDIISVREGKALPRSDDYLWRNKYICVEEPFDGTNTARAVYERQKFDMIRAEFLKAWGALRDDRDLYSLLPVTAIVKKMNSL

[4] = target: HA-tagged CPEB1 (Xenopus laevis) (UniProt Q91572); experiment: co-IP; HA-tagged CPEB as bait from injected RNA in stage VI oocytes; lysis in 20 mM Tris-HCl pH 8, 100 mM NaCl, 0.4% NP40, 1 mM EDTA, 1 mM MgCl2; anti-HA magnetic beads; endogenous preys by Western blot; remark: listed apart in the source
[5] = target: HA-tagged CPEB1(Y365A) (Xenopus laevis) (UniProt Q91572); experiment: as above

binding [1]: binds
binding [2]: binds
binding [3]: binds
Molecule: endogenous CPEB1 (from UniProt Q91572)

binding [2]: no binding
Molecule: Maskin (from UniProt Q9PTG8 1-931)

binding [4]: no binding
B1: PARN (protein, UniProt Q90ZA1 1-631)
chain: MEITRSNFKDTLPKVYKAIEEADFLAIDGEFSGISDGPSVSTLTNGFDTPEERYTKLKKHSMEFLLFQFGLCTFNYDNTEAKYLMKSFNFYIFPKPFNRNSPDKKFVCQSSSIDFLANQGFDFNKVFRNGIPYLNQEEERVLRDQYEDRRSQSNGASTMSYISPNSSKTPVSIPDEQKGFIDKVVERVEDFLKNEQKSMNVEPCTGYQRKLIYQTLNWKYPRGIHVETVESEKKERYIVISKVDEEERKRMEQQKQAKEREELDDAVGFSRIIQAISSSGKLVVGHNMLLDVMHTIHQFFCQLPDELNEFKEVTNCVFPRVLDTKLMASTNPFKEIIYNTSLAELEKRLKEAPFKPPKVDSAEGFQSYNTASEQLHEAGYDAYITGLCFISMANYLGSFLSPPKDYVSCRSKIVRPFFNKLFLMRIMDIPYLNLEGPDLQPKRDNVLHVTFPKEWKTSDLYQLFSAFGNIQVSWIDDTSAFVSLSQPEQVQIAVNTSKYAESYRIQTYAEYIEKKNDESQTKRKWAEDGWKDLERKRLKTQYNSYIPQNPVFYGNCFAPSFAVKRSMSPIQEEAASDDTEEVHTHENDPSNPGATEQGKKPKNHKRQKIDSAPPETSDGGSSVLFEVPDTW

binding [5]: binds
binding [4]: binds
B2: Symplekin (SYMPK) (protein, UniProt Q7ZYV9 1-1202)
chain: MAVSMASQFFSQEEGTSEVVSTSERVVELLNMAALATNDTKITMLKQVQELIINKDPTLLDNFLDEIIAFQADKSVEVRKIVVNFIEEACKLDNELLIKLIANLHMLLKDENVNVVKKSILTMTQLYKVALQWVARSRPPSEQQESCWDLVTEMAADILLLLESDNDGMRTHAVKFVESLIVTLSPRTADSEVPKRQDGDISLEQIPPDHQFLKYNTLRDLGKQAVKELLKFMAHPAISSINLTAALGSLASIARQRPMFMAEVIQAYETLHANLPPTLAKSQVSSVRKNLKLQLLSVLRHPSSYEYQGPISTLLLDLGTSQGEITRHLPPPRDSNRKRAREDGEGGQKKSRTDIPLPDDDDDKDTMQLPTIPAPAPSTQSATDITADFVRPLLSPENVANLVLISMVYLPDSMPASFQSTYTPVESAGTDSQIRHLARLMATQMSAAGIGPGVEQSKDIPVDVVEEENIKPEGLVIKRRISALTKGQAISVLGCQSEKTKEEEEEEDDAPLAKKRPEPILPATQIRPSGVGGRKKVFRLKEVTEPLTDVQIKSLKLGAVRRILQAERSVGSSGASQMRVKVLARLVTQLDISVKAEVLSHFLNDPRMRLDLALAWLYQEYCEYQSGAGEEGYQECLIGILTGLQERPDQRDGVFTKVVLEAPLLTDSALDVLRKYCEDEGRSYLGMSTLRDLILTRPARQFQYLHLLLDLSSHEKDKIRQQSLHFIKRMYEKESLRPYIEKFALNYLQLLVHPNPPSVLFGADKDTEVAAPWTEDTVKQCLYLYLALLPQNHKLIHELASVYTEATADIKRTVLRVIETPIRGMGMNSPELLLLVENCPKGAETLVTRCLHILTDKVPPSPELVKRVRELYHKRLPDVRFLIPVLNGLDKKEVIQALPKLIKLNPIVVKEVFNRLLGTQHGEVSSSLSPLTPGDLLVALHNIDSSKCDMKSVIKATNLCFSARSVYTSEVLAVVLQQLMDTTPLPMLLMRTVIQALGMYPRLGGFIMNILTRLIYKQVWKYPKVWEGFIKCCQRTKPQSFSVLLQLPPPQLLSVLQTSPDLRDPLLAHVRAFTPHQLAHVPHSIMAILEAESRTDAGAEEAAQVEEEQETPAQDIIARRLAQEKSLKKQIEEQKGRNNQEMEEVAEVDPPAIFIAEEEEEESLKSQGKEEPQEDSSSNATTAEKSPVADEPMEEEPVEKKD
